The values below come from PMC9454942, “Novel AR/AR-V7 and Mnk1/2 Degrader, VNPP433-3β: Molecular Mechanisms of Action and Efficacy in AR-Overexpressing Castration Resistant Prostate Cancer In Vitro and In Vivo Models” (Cells, 2022).

By UniProt entry, the sequences of proteins in these tests, tags left out. Where a name states a change or a piece, a line headed by the entry shows the natural chain unless it says otherwise. Chains listed by the source or under a name are the forms on record and can include a tag or linker.
UniProt Q00987: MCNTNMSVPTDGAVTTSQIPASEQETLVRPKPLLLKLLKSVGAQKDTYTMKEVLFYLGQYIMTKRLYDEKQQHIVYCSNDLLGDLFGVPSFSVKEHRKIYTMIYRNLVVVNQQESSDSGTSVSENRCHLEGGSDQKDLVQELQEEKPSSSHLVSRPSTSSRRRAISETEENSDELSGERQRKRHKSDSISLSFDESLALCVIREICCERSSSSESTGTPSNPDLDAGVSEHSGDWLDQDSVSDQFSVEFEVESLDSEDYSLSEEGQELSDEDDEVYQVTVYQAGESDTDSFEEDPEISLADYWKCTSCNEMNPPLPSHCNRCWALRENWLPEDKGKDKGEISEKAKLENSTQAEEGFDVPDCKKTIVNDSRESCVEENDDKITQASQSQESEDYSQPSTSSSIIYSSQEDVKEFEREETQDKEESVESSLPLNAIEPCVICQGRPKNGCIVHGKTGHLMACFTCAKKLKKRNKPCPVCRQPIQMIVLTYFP
UniProt Q9UNE7: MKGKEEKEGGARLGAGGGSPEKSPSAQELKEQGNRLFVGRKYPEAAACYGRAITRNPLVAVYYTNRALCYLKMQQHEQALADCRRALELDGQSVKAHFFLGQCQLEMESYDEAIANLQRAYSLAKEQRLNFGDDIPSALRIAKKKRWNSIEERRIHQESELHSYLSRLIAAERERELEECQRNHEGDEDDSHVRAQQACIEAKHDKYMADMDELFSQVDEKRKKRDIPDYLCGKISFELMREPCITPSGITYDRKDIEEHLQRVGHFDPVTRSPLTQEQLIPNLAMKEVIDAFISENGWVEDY
androgen receptor splice variant AR-V7 (P10275-3, form named): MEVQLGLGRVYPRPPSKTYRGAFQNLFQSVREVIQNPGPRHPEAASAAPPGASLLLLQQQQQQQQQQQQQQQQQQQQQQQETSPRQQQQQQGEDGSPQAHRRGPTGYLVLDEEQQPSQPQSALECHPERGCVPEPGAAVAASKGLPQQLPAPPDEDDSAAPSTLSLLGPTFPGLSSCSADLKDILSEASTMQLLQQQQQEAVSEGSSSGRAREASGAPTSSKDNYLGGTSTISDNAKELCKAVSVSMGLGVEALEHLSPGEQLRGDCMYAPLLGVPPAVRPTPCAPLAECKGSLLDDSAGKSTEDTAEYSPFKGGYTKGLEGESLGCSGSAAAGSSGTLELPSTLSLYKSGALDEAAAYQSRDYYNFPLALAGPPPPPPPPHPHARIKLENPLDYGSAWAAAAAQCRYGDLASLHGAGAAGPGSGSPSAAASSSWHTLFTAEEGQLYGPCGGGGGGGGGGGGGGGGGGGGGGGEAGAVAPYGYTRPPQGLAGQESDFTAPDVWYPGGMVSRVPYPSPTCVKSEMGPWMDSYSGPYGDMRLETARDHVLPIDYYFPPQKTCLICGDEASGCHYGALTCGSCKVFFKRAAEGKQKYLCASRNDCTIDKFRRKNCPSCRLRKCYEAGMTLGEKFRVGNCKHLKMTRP

The target in assay [1] is E3 ligase MDM2 (human (endogenous in CWR22Rv1 and LNCaP)) (UniProt Q00987). As to the kind of experiment: co-IP; CWR22Rv1 and LNCaP cells hormone-starved for 48 h, treated with DMSO or VNPP433-3β (10 µM) for 4 h; lysate with 1 mg protein on Dynabeads Protein A carrying 3-5 µg antibody (anti-AR, anti-MDM2, anti-CHIP or anti-HSP90); immunoblot.
In assay [2] the target is E3 ligase CHIP (human (endogenous in CWR22Rv1 and LNCaP)) (UniProt Q9UNE7). The assay is described as above.

These are yes or no findings as the source states them, for the method shown. Binding seen in cells or lysates may run through a third protein. Some binding calls cover weakened binding; strength is not graded here.

On to “androgen receptor splice variant AR-V7 (from UniProt P10275-3 1-644)”, for which the binding entry in assay [1] and in assay [2] was “binds” in each case.
